Some of the results follow. Most values lie at the level of the controls, where differences are scatter.
Each target was assayed with CN[C@@H]1C[C@H]2O[C@@](C)([C@@H]1OC)n1c3ccccc3c3c4c(c5c6ccccc6n2c5c31)C(=O)NC4 [staurosporine] (assay: log2 fold change of tryptic peptide abundance, ligand vs vehicle (limited proteolysis) (log2 ratio); higher = more trypsin-susceptible (destabilized)). Conditions: ligand concentration: 20 uM; sample: K562 cleared lysate; digestion: 4 min, 22 C (HT-PELSA RT4min, Orbitrap Astral).

Protein sequences, listed by entry. Tags and fused reporters are not part of them. Lines headed by an entry give the natural chain unless they say otherwise; changes in a name come on top.
UniProt Q9C0E8: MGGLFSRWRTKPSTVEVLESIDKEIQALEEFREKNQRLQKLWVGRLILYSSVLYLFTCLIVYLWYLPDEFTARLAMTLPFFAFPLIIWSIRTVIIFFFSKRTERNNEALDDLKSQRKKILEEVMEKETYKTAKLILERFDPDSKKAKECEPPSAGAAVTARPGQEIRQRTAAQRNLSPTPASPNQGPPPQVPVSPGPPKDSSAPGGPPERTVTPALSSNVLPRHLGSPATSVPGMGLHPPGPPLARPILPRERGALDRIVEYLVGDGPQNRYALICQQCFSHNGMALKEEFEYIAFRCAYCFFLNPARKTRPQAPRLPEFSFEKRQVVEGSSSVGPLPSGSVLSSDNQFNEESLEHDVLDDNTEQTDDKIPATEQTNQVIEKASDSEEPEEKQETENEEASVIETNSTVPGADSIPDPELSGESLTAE
UniProt Q9H3Y8: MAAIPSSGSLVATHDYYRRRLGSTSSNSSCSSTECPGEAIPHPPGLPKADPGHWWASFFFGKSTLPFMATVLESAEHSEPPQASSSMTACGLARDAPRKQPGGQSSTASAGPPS
UniProt Q9H2L5: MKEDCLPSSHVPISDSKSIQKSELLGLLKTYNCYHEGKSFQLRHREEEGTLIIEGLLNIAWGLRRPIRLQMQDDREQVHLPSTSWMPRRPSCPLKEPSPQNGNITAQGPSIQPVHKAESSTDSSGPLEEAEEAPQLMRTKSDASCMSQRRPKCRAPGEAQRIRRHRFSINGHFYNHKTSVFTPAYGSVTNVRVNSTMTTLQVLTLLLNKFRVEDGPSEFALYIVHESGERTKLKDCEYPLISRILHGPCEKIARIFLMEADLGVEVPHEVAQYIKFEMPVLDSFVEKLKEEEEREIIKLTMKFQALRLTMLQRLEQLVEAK
UniProt Q9BXK1: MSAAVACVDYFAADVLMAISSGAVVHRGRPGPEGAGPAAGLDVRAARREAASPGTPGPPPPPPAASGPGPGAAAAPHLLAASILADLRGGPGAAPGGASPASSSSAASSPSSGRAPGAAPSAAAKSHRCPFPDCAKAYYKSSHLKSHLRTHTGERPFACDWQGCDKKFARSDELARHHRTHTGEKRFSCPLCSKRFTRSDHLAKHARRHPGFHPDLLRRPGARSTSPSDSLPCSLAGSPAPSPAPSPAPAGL
UniProt Q9H2H9: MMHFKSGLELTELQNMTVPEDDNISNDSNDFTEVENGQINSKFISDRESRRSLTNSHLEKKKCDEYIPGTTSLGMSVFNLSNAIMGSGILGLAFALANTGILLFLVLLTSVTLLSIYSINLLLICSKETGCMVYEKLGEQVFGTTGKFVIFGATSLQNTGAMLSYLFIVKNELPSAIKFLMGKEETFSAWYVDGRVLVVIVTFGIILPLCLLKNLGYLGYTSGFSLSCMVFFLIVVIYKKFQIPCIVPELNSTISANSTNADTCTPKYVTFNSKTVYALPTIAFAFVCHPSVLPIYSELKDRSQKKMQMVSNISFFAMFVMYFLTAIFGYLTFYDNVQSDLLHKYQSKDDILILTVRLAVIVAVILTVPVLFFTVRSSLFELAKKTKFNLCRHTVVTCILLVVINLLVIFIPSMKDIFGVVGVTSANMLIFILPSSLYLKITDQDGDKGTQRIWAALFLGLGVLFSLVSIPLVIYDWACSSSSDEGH
UniProt Q9C0B7: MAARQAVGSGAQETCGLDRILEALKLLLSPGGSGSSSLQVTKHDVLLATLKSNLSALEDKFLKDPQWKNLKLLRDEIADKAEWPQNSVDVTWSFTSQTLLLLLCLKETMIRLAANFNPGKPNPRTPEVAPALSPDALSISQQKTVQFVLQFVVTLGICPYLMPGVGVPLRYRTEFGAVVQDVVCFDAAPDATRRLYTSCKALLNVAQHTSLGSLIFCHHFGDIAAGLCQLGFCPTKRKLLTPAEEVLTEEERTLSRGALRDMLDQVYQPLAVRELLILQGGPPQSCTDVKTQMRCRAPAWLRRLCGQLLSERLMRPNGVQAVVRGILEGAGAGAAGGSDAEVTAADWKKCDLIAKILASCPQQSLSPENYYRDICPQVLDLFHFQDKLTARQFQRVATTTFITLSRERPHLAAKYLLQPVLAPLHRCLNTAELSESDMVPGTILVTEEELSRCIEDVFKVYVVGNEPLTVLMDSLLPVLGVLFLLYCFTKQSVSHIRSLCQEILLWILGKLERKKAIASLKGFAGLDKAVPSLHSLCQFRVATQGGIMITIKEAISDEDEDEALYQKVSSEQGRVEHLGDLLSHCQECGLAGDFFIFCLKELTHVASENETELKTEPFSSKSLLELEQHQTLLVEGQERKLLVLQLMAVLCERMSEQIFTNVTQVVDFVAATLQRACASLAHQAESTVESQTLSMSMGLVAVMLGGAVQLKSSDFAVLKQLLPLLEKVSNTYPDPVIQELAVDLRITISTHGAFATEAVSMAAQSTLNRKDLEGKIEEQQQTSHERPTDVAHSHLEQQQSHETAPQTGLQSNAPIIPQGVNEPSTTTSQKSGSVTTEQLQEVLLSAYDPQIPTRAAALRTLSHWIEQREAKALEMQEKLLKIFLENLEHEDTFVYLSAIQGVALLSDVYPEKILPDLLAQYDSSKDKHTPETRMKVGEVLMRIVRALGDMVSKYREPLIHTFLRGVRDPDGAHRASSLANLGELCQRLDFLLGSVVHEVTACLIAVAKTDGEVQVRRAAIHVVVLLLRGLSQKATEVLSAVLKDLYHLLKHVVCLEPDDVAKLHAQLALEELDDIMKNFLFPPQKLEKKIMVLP
UniProt Q9BXV9: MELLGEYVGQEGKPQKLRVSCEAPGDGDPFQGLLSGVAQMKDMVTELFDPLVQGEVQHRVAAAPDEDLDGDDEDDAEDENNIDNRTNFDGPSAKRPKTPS
UniProt Q9BX69: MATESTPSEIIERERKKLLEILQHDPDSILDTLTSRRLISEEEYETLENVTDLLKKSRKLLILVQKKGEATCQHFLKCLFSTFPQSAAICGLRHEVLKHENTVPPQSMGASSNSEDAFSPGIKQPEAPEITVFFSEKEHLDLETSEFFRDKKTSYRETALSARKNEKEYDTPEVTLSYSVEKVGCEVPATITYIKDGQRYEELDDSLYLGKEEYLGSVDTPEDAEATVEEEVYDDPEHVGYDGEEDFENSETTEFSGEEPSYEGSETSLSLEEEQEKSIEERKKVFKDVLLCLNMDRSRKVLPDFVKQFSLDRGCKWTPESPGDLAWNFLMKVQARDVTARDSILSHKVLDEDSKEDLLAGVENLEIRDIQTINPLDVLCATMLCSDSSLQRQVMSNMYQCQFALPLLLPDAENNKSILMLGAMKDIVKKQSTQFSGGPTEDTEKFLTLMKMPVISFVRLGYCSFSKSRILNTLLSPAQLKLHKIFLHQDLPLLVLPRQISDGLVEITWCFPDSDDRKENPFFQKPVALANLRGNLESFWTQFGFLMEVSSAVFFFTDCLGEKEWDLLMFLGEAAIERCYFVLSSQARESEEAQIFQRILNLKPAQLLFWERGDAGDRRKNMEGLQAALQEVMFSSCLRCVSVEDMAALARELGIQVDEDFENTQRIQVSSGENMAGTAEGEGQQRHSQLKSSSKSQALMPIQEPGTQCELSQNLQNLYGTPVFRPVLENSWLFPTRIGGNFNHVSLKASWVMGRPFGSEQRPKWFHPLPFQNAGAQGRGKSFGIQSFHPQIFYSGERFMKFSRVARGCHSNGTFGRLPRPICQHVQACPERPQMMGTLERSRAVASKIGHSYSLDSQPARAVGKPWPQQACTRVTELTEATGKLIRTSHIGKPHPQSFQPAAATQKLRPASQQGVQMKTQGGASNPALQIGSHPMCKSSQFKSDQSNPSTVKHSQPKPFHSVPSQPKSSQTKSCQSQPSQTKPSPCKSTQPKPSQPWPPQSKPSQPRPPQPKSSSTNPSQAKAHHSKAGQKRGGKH
UniProt Q9H2K0, whole entry, looked up: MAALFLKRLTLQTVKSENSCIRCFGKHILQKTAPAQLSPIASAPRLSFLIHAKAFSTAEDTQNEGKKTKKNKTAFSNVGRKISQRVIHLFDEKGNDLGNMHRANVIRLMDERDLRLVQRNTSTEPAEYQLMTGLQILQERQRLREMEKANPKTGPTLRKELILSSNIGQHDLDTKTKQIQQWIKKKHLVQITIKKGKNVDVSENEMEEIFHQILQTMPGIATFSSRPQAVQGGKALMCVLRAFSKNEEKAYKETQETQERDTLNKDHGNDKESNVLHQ
UniProt Q9BXF6: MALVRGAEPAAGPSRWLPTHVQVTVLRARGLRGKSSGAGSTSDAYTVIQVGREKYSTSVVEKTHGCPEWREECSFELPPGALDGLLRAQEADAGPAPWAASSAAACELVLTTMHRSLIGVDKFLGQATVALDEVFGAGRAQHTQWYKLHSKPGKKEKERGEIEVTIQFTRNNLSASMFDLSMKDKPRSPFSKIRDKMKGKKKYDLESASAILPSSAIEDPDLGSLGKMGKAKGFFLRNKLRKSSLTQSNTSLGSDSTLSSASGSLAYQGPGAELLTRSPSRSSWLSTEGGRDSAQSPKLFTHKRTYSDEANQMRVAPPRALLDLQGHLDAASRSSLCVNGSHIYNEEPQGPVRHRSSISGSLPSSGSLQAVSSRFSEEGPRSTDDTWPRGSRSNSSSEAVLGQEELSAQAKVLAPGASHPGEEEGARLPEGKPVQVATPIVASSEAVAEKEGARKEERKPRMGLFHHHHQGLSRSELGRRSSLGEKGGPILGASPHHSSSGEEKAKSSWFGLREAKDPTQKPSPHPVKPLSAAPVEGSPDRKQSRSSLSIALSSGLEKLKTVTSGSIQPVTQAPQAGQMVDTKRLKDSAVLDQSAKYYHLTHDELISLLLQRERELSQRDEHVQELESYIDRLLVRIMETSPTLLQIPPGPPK
UniProt Q9C005, whole entry: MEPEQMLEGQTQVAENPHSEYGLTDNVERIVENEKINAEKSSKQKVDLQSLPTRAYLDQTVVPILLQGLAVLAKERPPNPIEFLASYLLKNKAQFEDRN
UniProt Q9C0I1: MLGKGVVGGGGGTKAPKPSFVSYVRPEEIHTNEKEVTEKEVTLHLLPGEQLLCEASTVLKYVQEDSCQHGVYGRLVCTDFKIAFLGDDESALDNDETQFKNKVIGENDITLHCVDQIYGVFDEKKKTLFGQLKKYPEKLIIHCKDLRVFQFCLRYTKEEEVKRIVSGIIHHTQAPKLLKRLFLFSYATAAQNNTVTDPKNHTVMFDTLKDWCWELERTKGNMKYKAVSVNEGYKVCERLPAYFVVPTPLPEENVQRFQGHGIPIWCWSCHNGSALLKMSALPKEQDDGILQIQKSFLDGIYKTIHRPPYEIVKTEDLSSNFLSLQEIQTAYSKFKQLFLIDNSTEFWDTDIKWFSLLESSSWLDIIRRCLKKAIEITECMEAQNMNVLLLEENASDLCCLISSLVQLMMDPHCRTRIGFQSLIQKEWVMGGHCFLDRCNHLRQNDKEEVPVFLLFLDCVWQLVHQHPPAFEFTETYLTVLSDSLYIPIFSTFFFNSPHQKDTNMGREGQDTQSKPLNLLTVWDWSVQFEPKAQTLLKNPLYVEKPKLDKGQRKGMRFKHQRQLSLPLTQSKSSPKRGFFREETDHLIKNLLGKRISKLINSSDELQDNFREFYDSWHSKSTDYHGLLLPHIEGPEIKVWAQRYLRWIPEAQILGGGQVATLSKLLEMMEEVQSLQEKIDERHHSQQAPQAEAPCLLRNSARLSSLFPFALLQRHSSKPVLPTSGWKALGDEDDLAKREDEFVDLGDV
UniProt Q9H0I2: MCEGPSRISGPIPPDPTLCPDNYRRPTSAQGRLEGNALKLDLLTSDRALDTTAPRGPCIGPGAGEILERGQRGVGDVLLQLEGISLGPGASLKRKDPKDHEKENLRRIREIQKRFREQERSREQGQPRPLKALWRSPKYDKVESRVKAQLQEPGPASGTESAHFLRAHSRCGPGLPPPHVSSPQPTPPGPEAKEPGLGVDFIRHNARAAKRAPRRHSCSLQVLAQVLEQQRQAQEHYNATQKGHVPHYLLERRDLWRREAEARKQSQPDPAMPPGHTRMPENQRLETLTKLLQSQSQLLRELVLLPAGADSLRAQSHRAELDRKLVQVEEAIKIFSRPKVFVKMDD
UniProt Q9BZZ5: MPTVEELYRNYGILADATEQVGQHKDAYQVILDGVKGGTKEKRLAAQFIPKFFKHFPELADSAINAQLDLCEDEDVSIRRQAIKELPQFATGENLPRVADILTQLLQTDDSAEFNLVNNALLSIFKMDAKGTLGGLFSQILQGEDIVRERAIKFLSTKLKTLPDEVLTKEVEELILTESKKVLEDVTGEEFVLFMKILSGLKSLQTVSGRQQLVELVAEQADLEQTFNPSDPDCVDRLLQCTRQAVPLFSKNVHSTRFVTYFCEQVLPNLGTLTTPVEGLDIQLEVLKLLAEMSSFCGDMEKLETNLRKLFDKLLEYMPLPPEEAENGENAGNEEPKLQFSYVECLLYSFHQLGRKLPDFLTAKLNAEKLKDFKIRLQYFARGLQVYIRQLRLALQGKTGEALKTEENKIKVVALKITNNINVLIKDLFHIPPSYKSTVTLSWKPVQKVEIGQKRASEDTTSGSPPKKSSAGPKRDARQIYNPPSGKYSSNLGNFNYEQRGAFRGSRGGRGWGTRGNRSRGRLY

Target | log2 fold change
TRIOBP (peptide sequence: LSDSNKENALHSYSTQK, peptide start residue: 1897) (UniProt Q9H2D6) | -0.799
UniProt Q9C0E8 (peptide sequence: ILEEVMEK, peptide start residue: 119) | -0.116
SNX25 (peptide sequence: HEEQPRPFVLHACLR, peptide start residue: 81) (UniProt Q9H3E2) | 0.253
UniProt Q9H019 (peptide sequence: KPALPALSR, peptide start residue: 119) | 0.642
ARHGAP39 (peptide sequence: TVWHRPQGCDIIPLAK, peptide start residue: 90) (UniProt Q9C0H5) | -0.085
UniProt Q9H3Y8 (peptide sequence: ADPGHWWASFFFGK, peptide start residue: 49) | 0.0126
UniProt Q9H2L5 (peptide sequence: LKEEEER, peptide start residue: 351) | 0.132
EHD4 (peptide sequence: VINTPEVLR, peptide start residue: 246) (UniProt Q9H223) | 0.355
RAB3GAP2 (peptide sequence: TVKPLSLFDSK, peptide start residue: 1175) (UniProt Q9H2M9) | 0.428
KLF16 (peptide sequence: GRPGPEGAGPAAGLDVR, peptide start residue: 28) (UniProt Q9BXK1) | 0.263
SLC38A1 (peptide sequence: RSLTNSHLEK, peptide start residue: 51) (UniProt Q9H2H9) | -0.129
UniProt Q9C0B7 (peptide sequence: AVPSLHSLCQFR, peptide start residue: 529) | 0.163
GNB1L (peptide sequence: ILATAGWDHR, peptide start residue: 267) (UniProt Q9BYB4) | -0.418
UniProt Q9BXV9 (peptide sequence: TNFDGPSAK, peptide start residue: 86) | -0.0223
SSBP4 (peptide sequence: SAQTFLSEIR, peptide start residue: 36) (UniProt Q9BWG4) | -0.214
CARD6 (peptide sequence: TQGGASNPALQIGSHPMCK, peptide start residue: 920) (UniProt Q9BX69) | -0.399
MTIF3 (peptide sequence: DTLNKDHGNDKESNVLHQ, peptide start residue: 261) (UniProt Q9H2K0) | -0.301
RAB11FIP5 (peptide sequence: GGPILGASPHHSSSGEEK, peptide start residue: 487) (UniProt Q9BXF6) | 0.161
DPY30 (peptide sequence: AQFEDRN, peptide start residue: 93) (UniProt Q9C005) | -0.171
UniProt Q9C0I1 (peptide sequence: SFLDGIYK, peptide start residue: 295) | 0.245
BRD8 (peptide sequence: LLSTGPTEPWSIR, peptide start residue: 10) (UniProt Q9H0E9) | -0.717
ENKD1 (peptide sequence: LDLLTSDR, peptide start residue: 40) (UniProt Q9H0I2) | 0.172
PTPN23 (peptide sequence: REESEAVEAGDPPEELR, peptide start residue: 730) (UniProt Q9H3S7) | -0.101
TRIM5 (peptide sequence: SLTNSETEMVQQTQSLR, peptide start residue: 213) (UniProt Q9C035) | 0.166
MFSD1 (peptide sequence: ALLAGGPDEADR, peptide start residue: 10) (UniProt Q9H3U5) | 0.0183
ZNF106 (peptide sequence: SLSESSVIMDR, peptide start residue: 859) (UniProt Q9H2Y7) | 0.292
API5 (peptide sequence: KVLEDVTGEEFVLFMK, peptide start residue: 181) (UniProt Q9BZZ5) | 0.555
EDEM3 (peptide sequence: HNFLPEAFTTDFR, peptide start residue: 382) (UniProt Q9BZQ6) | -0.249

Taken from above:
log2 fold change with BRD8 (peptide sequence: LLSTGPTEPWSIR, peptide start residue: 10) (UniProt Q9H0E9) is entered as -0.717
log2 fold change with DPY30 (peptide sequence: AQFEDRN, peptide start residue: 93) (UniProt Q9C005) is entered as -0.171
